PubChem BioAssay AID686943 | Drosophila RNAi Screening Center – 2013
The screen tested about 23,000 reagents; shown is a random part of those with a known target gene and a result. 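Extra replicates exist only for a retested subset of genes; insulin dose and duration not given; both raised and lowered dpERK matter.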 Reagents against one gene are numbered here. The record does not give: the amount of reagent, the time to read-out.

- Purpose: 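Knockdowns that increase or decrease active ERK after insulin receptor stimulation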 (primary screen)
- System: Drosophila S2R+ haemocyte-like cells expressing YFP-tagged ERK (Rolled)
- Reagent: long dsRNA against Drosophila genes
- Challenge: insulin stimulation versus unstimulated cells; dose and duration not given
- Detection: 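Per-plate z-scores of phospho-ERK immunostaining normalised to YFP-tagged ERK, measured with and without insulin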
- Scale: replicate 1, z-score of dpERK with insulin and replicate 2, z-score of dpERK with insulin: higher = more active ERK per ERK-YFP after insulin; replicate 1, z-score of dpERK under basal conditions: higher = more basal active ERK per ERK-YFP; replicate 1, z-score of ERK-YFP with insulin: higher = more YFP-tagged ERK signal

| gene | reagent no. | replicate 1, z-score of dpERK with insulin | replicate 2, z-score of dpERK with insulin | replicate 1, z-score of dpERK under basal conditions | replicate 1, z-score of ERK-YFP with insulin |
| --- | --- | --- | --- | --- | --- |
| COX6B | 1 | -2.46 | -1.12 | -1.37 | 2.26 |
| CR4575 | 1 | 1.38 | -0.84 | 0.05 | 0.67 |
| Hira | 1 | 0.26 | 0 | -0.16 | 0.65 |
| Epp | 1 | -0.19 | -0.34 | -0.79 | 0.63 |
| Ntf-2r | 1 | 0.23 | -0.12 | 0.55 | -0.84 |
| egr | 1 | 0.71 | 0.69 | 0.84 | 0.22 |
| Kul | 1 | 0.96 | -0.05 | -0.01 | -0.17 |
| CG13494 | 1 | 0.15 | 0.25 | 0.11 | 0.39 |
| smid | 1 | 0.4 | -1.54 | -0.46 | 0.05 |
| CG15641 | 1 | 0 | 0.31 | 2.16 | -0.13 |
| trpl | 1 | 0.59 | 0.16 | -0.14 | 0.6 |
| trpl | 2 | -0.78 | 0.37 | 0.97 | 1.05 |
| Acyp2 | 1 | -0.45 | -1.74 | -0.48 | 0.44 |
| CG15480 | 1 | 0.47 | -0.12 | 0.42 | -0.35 |
| Grl62a | 1 | 0.66 | 0.16 | 0.42 | 0.06 |
| CG33773 | 1 | 0.18 | -0.09 | 0.05 | 0.18 |
| Blos2 | 1 | 0.58 | -0.34 | 0.19 | -0.11 |
| ppk20 | 1 | 0.27 | -0.15 | 0.32 | -0.37 |
| CG3032 | 1 | -0.46 | -1.46 | 0.14 | 0.23 |
| Gr93d | 1 | 0.03 | -1.5 | 0 | 0.02 |
| RhoGAP102A | 1 | 0.37 | 0.35 | 1.88 | 0.44 |
| RhoGAP102A | 2 | 0.12 | 0.28 | -0.22 | -0.27 |
| CG6421 | 1 | 0.33 | 1.5 | -0.4 | 1.72 |
| CG17724 | 1 | -1.57 | -0.43 | 0.19 | 1.14 |
| Fbp2 | 1 | -0.69 | 0.23 | -0.23 | 0.92 |
| GAPsec | 1 | -0.12 | -0.78 | -0.15 | 0.53 |
| Jon99Ciii | 1 | -0.86 | -0.13 | -1.19 | -3.02 |
| CG11977 | 1 | -0.85 | -1.18 | -0.6 | -1.35 |
| CG31697 | 1 | -0.57 | 0.81 | 0.02 | -1.38 |
| unc-5 | 1 | 0.54 | 0.3 | 0.92 | 0.15 |
| unc-5 | 2 | 1.39 | -0.49 | 0.4 | -0.51 |
| unc-5 | 3 | 0.89 | 1.77 | 0.77 | -0.21 |
| CG5280 | 1 | 1.03 | 0.15 | -0.4 | -0.34 |
| CG5280 | 2 | -0.21 | -0.72 | -1.01 | 0.77 |
| shep | 1 | 0.72 | -3.16 | -2.95 | 0.16 |
| shep | 2 | 0.68 | 1.02 | 1.03 | 0.05 |
| shep | 3 | 0.16 | -0.04 | 0.58 | 0.35 |
| Eig71Eh | 1 | 0.21 | 0.43 | 0.08 | 0.08 |
| CG11449 | 1 | -0.35 | 2.62 | -0.46 | -0.45 |
| Smyd4-4 | 1 | 0.05 | -0.45 | 0.49 | -0.62 |
| Lamtor1 | 1 | 0.45 | -0.26 | -0.64 | -0.13 |
| witty | 1 | 1.35 | 0.42 | 1.78 | -0.21 |
| witty | 2 | 0.17 | 0.88 | 0.26 | 0.59 |
| Ir48a | 1 | 0.2 | 0.77 | 0.56 | 0.01 |
| PIG-L | 1 | 0.75 | -0.34 | 0.75 | -0.03 |

Individual results from above.
Under “replicate 1, z-score of ERK-YFP with insulin”, Gr93d reads 0.02
Under “replicate 2, z-score of dpERK with insulin”, COX6B has -1.12
Value of CG15641 in “replicate 1, z-score of ERK-YFP with insulin”: -0.13
Under “replicate 1, z-score of dpERK with insulin”, CG15480 is entered as 0.47
Under “replicate 1, z-score of ERK-YFP with insulin”, Fbp2 shows 0.92
trpl #1, replicate 1, z-score of dpERK with insulin: 0.59

Further reagents:
| gene | reagent no. | replicate 1, z-score of dpERK with insulin | replicate 2, z-score of dpERK with insulin | replicate 1, z-score of dpERK under basal conditions | replicate 1, z-score of ERK-YFP with insulin |
| --- | --- | --- | --- | --- | --- |
| CG13318 | 1 | -0.12 | -0.41 | -0.96 | 0 |
| Crtc | 1 | 0.97 | 1.8 | -1.35 | -0.48 |
| Hr4 | 1 | -3.81 | 1.3 | -0.07 | -5 |
| Hr4 | 2 | -2.5 | 0 | -0.34 | 0.92 |
| Hr4 | 3 | -1.69 | -1.57 | 0.73 | -1.77 |
| Hr4 | 4 | -2.63 | -3.38 | 1.26 | -0.82 |
| CG6015 | 1 | 4.41 | 2.91 | 2.9 | -2.03 |
| CG32201 | 1 | 0.07 | 0.49 | 0.59 | -0.17 |
| CG12766 | 1 | 0.01 | 0.67 | -0.67 | 0.18 |
| EbpIII | 1 | -0.79 | -1.94 | -0.55 | 1.25 |
| NHP2 | 1 | 0.02 | 0.29 | 0.2 | 1.09 |
| Antdh | 1 | 0 | 0 | 0.75 | -0.36 |
| CG13197 | 1 | -1.22 | 0.7 | -0.11 | 0.16 |
| CG13384 | 1 | 0.24 | 0.03 | -0.08 | -0.28 |
| SecS | 1 | 0.64 | -0.89 | 0.99 | -0.4 |
| Chd1 | 1 | 1.09 | 0.14 | -0.31 | -1.4 |
| CG43394 | 1 | -1.15 | 0.26 | -1.02 | -2.42 |
| CG43394 | 2 | -0.05 | 0.41 | -0.14 | 0.7 |
| Sf3a2 | 1 | 1.33 | 1.3 | 0.46 | -1.87 |
| CG5781 | 1 | 0.43 | 0.42 | -0.17 | -0.12 |
| CG34330 | 1 | 1.26 | 0.02 | -0.22 | -0.07 |
| Sgs7 | 1 | -0.12 | 1.54 | -0.97 | 0.47 |
| Cam | 1 | 1.15 | 0.48 | 1.61 | 0 |
| Cam | 2 | 0.56 | 0.43 | -0.16 | -0.63 |
| Ir75c | 1 | 0.18 | -0.3 | 0.22 | 0.17 |
| CG5104 | 1 | 0.32 | -0.27 | 2.28 | 0.36 |
| Acp29AB | 1 | -1.11 | -0.84 | -0.93 | -0.5 |
| ppk3 | 1 | 0.35 | 0.16 | 0.74 | 0.5 |
